Data reported in patent publication CN117551199A.
Results are given in words; binding and its absence hold for the method and conditions named. Some entries that bind do so weakly or less than the wild type. For part of these data: Where a sequence is shown, tags or fusion partners need not be part of it.

T1: Claudin18.2 VLP (UniProt P56856)
T1 sequence: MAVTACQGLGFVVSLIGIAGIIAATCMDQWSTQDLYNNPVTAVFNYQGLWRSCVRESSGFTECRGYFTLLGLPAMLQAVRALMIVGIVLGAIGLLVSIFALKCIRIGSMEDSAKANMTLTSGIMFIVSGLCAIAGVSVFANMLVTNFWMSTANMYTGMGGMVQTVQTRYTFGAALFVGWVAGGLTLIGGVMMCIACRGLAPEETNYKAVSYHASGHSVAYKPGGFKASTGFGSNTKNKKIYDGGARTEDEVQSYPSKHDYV

T2: Claudin18.2抗原 (恺佧生物，货号CLD-HE1822) (UniProt P56856)
T2 sequence (looked up): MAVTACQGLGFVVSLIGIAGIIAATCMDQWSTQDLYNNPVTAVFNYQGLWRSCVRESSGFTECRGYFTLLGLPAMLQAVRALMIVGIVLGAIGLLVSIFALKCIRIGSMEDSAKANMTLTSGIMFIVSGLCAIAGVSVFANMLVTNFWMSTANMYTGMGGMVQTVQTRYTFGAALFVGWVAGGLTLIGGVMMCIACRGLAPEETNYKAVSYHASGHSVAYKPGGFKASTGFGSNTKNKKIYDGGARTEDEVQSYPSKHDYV


Tests used:
Claudin18.2 VLP = target: T1, Claudin18.2 VLP; test: BLI, Fc-tagged nanobody captured on AHC sensor, Claudin18.2 VLP as analyte
[1] = target: T2, Claudin18.2抗原 (恺佧生物，货号CLD-HE1822); test: ELISA, Claudin18.2 antigen coated at 100 ng/mL, HRP anti-Myc detection

| Binder | binding (Claudin18.2 VLP) | binding [1] |
| --- | --- | --- |
| 11C带Fc标签 (11C with Fc tag) (Fc fusion) DVQLQESGGGSVQAGGSLRLSCAASGAIYMRNYMAWFRQVPGKEREGVAGISASSGRTYYDDSVKGRFTISQDNAKNTVYLQMNSLKPEDTAMYFCAADPFQVMIDTMRYWGQGTQVTVSS | binds | – |
| Claudin18.2纳米抗体 12B (VHH, not shown: small tags and cut ends) VHH: EVQLVESGGGSVQAGGSLRLSCAVSGYTYNLKYMGWFRQAPGKEREPVAFIYLGGDNQYYAPSVKDRFTISQDNAKNTVYLQMNSLKPDDTAMYYCAATTALLFLAQTSSWNYWGQGTQVTVSS | – | binds |
| 12B带Fc标签 (12B with Fc tag) (Fc fusion) EVQLVESGGGSVQAGGSLRLSCAVSGYTYNLKYMGWFRQAPGKEREPVAFIYLGGDNQYYAPSVKDRFTISQDNAKNTVYLQMNSLKPDDTAMYYCAATTALLFLAQTSSWNYWGQGTQVTVSS | binds | – |
